# Source: article PMC7819943, “Rice protein-binding microarrays: a tool to detect cis-acting elements near promoter regions in rice”
# Amino acid sequences for entries named in this document (tags omitted).
# UniProt Q0JBA9, entry or part of it: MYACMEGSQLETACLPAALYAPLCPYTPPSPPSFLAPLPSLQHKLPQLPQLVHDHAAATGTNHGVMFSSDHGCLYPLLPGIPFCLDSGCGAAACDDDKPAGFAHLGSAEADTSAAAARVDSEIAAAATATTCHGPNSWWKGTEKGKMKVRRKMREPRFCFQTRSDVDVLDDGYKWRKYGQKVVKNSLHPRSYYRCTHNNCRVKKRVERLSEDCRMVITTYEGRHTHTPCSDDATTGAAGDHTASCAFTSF
# The list shows a part of the results.
# Target: OsWRKY34 (Oryza sativa, UniProt Q0JBA9 1-250)
# Assay: protein-binding microarray (RPBM); PBS, 2% BSA, 51.3 ng/ul salmon testes DNA, 50 uM zinc acetate, 200 nM TF, 25 C, 1 h; high values mean tight binding
# Settings: protein: recombinant; tags: N-terminal polyhistidine and DsRed monomer fusion (pET32a); label: CyDye5-dUTP incorporated in the synthesized complementary strand; 3' TTTTT single-stranded linker to array surface; dsDNA, one strand shown
# Summary of the method: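 Binding signal here means per-feature fluorescence intensity in arbitrary units. The values were read on an Axon 4000B scanner after a custom Agilent array, double-stranded by primer extension with Cy5-dUTP, was incubated with 200 nM protein at 25 °C for 1 h in PBS with 2% BSA, salmon testes DNA and 50 µM zinc acetate, then washed. The proteins were transcription factors with an N-terminal polyhistidine tag and DsRed, expressed in E. coli BL21-CodonPlus and purified on Ni–NTA.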
row,Sequence,binding signal
1,GCTCTTGGACCCTTGACCTGACTTGGTTGTCTTTCCTTATCGGAGTCACCTAGTGCAG,12400 fluorescence intensity (a.u.)
2,GGGATTAGTGGGTAGGGAGGGATTCATCCCCAACAGGGATCGGAGTCACCTAGTGCAG,12000 fluorescence intensity (a.u.)
3,GCCGGCGCCGGTGGCGTGCGGTCGTGGGCGGGAGGTGGTGCGGAGTCACCTAGTGCAG,12300 fluorescence intensity (a.u.)
4,CCACCTCCATATCTATCCACTTCTCACTCTCTCACACTCTCGGAGTCACCTAGTGCAG,9620 fluorescence intensity (a.u.)
5,TTCTATGTGTACTCTAGTCTCCTCTTCTAATATTCCTTTTCGGAGTCACCTAGTGCAG,9710 fluorescence intensity (a.u.)
6,TATCCAGTTTATCCACATCAAATCCATATATCTACACACGCGGAGTCACCTAGTGCAG,8130 fluorescence intensity (a.u.)
7,GGTCAGCATCTTAGGTCATATTTTCCCTGAATATATATGTCGGAGTCACCTAGTGCAG,8810 fluorescence intensity (a.u.)
8,TACGTACTCTTACCATGCATGCAGAGCTAGCTAATTACTCCGGAGTCACCTAGTGCAG,8190 fluorescence intensity (a.u.)
9,GCACCCTCGCCGTTGCAGCTCCATGTGACCACGGAGGGCCCGGAGTCACCTAGTGCAG,8420 fluorescence intensity (a.u.)
10,GCTATCCCTCTTATTCTCGCAACCACGCTGATCCCAAACCCGGAGTCACCTAGTGCAG,8340 fluorescence intensity (a.u.)
11,ATCCCCACACCTTCTCGCCACGGTCCGACGCGCAAGCGCGCGGAGTCACCTAGTGCAG,8310 fluorescence intensity (a.u.)
12,AGCCATAATTACAAACACCTGTGATATACTCTCTTATTTCCGGAGTCACCTAGTGCAG,9320 fluorescence intensity (a.u.)
13,CTGGGCTGACTTTTGCCCTCCCTTGGGCATCCATCTCCTCCGGAGTCACCTAGTGCAG,8510 fluorescence intensity (a.u.)
14,ACGCAGGGGAGGGAGGGAGCGGTGGTGGTGGCGGCGGCGCCGGAGTCACCTAGTGCAG,14000 fluorescence intensity (a.u.)
15,GTTTCGGAAGCCACATCAAGTTTGATCTCTTTCCAAATTACGGAGTCACCTAGTGCAG,8640 fluorescence intensity (a.u.)
16,CCGTCAATCTCGCCGTCACCTGCTTCTTCTCCTCTATAAACGGAGTCACCTAGTGCAG,10100 fluorescence intensity (a.u.)
17,ATTCGCCTATCTGAAATTTCGAACTCCCAACATCGCACGACGGAGTCACCTAGTGCAG,8640 fluorescence intensity (a.u.)
18,GAAGGAGAAGGAGAGGGGAGGGGCTGACGGGTGGGGTCCACGGAGTCACCTAGTGCAG,14000 fluorescence intensity (a.u.)
19,CTATTACTCTTGCGCATAACCTTATTTATTTCACTGCAGTCGGAGTCACCTAGTGCAG,8180 fluorescence intensity (a.u.)
20,TTTCTTGATTGTATGTTTGCTGCGTTAAGGGCTTCGGAGACGGAGTCACCTAGTGCAG,8390 fluorescence intensity (a.u.)
21,GCTGTTCCATGCTCCACAACCCCGGGTCATTGACCCAATCCGGAGTCACCTAGTGCAG,16700 fluorescence intensity (a.u.)
22,GTTACGCCAGTGAGGCCGGAGGGGTGTTTGGTTCGGAAAGCGGAGTCACCTAGTGCAG,10500 fluorescence intensity (a.u.)
23,CCGTTGACTTTTTAGTACGTGTTTGATTCATTCTTAAATACGGAGTCACCTAGTGCAG,16200 fluorescence intensity (a.u.)
24,ACTTTTGAGAGTGGTCTGGTTTGGGCTTTCGGCCTTTTTTCGGAGTCACCTAGTGCAG,8960 fluorescence intensity (a.u.)
25,GGCGTGGTGTTGTAGTATATTTTTTTCTGCTGCACAAAATCGGAGTCACCTAGTGCAG,11200 fluorescence intensity (a.u.)
26,GCCGGCTAAACTGGCTTATTGTACTTGCTCTTACTTGACTCGGAGTCACCTAGTGCAG,9430 fluorescence intensity (a.u.)
27,GTGTGGTGGAGGAGATGTGTGTATGTGCTTCTTTCAGACACGGAGTCACCTAGTGCAG,8330 fluorescence intensity (a.u.)

# Some of the entries so far, as tab-separated lines.
row	Sequence	binding signal
23	CCGTTGACTTTTTAGTACGTGTTTGATTCATTCTTAAATACGGAGTCACCTAGTGCAG	16200 fluorescence intensity (a.u.)
24	ACTTTTGAGAGTGGTCTGGTTTGGGCTTTCGGCCTTTTTTCGGAGTCACCTAGTGCAG	8960 fluorescence intensity (a.u.)

# (further entries)

row,Sequence,binding signal
1,TAGTTCGTTTGTTTGGCTCCGCAGTAGCTATATAATTTTTCGGAGTCACCTAGTGCAG,8560 fluorescence intensity (a.u.)
2,GCGTCGGTCGGTTTCAGTTCAGGTGCCCTTCGTTGAAGGTCGGAGTCACCTAGTGCAG,8730 fluorescence intensity (a.u.)
3,TTGGTTTCTCACGCTCTTGTATAAGCTATCCAGCTGATTTCGGAGTCACCTAGTGCAG,10200 fluorescence intensity (a.u.)
4,GATGAGCGATGTTTTTTTGTCTTCCTTTTCTCCTTTTACCCGGAGTCACCTAGTGCAG,9440 fluorescence intensity (a.u.)
5,TTATGGCTATTACCCCATTTCGGATGCTTGACCGCTTGAACGGAGTCACCTAGTGCAG,8390 fluorescence intensity (a.u.)
6,ATCTCCACGATGCATGTTCCACTGCTCTCTCTCTCTCTCTCGGAGTCACCTAGTGCAG,8140 fluorescence intensity (a.u.)
7,ATGAGGGGCTTACTGGGCTTGGGAACGTCGAGCGGCGCCACGGAGTCACCTAGTGCAG,10800 fluorescence intensity (a.u.)
8,TCTTCATCAGCATTTGTTAGAAAAGTTTCTAATATTTTTTCGGAGTCACCTAGTGCAG,8660 fluorescence intensity (a.u.)
9,ATCCAATTTGCTGCAGGAGTGGCCATGTTAATTTTGCTCTCGGAGTCACCTAGTGCAG,8380 fluorescence intensity (a.u.)
10,TGCCCGGTCCTTCCACTTTGTGCCAAGCTTGACCGACAGCCGGAGTCACCTAGTGCAG,8310 fluorescence intensity (a.u.)
11,GTGTACGTCGTTGTTCTCCTACGTACAATTTGCTAAATTTCGGAGTCACCTAGTGCAG,8160 fluorescence intensity (a.u.)
12,TCTCTCACTTCACTCAACTCACTCACTGCTGCTGTCGTACCGGAGTCACCTAGTGCAG,10500 fluorescence intensity (a.u.)
13,TGGTAGGATGGGAGGAGCATATTTTTATAAAACTTTGAAACGGAGTCACCTAGTGCAG,8500 fluorescence intensity (a.u.)
14,ATCATGCACCTTCAGGATCAAGCATTTTGTTGCCGTCCGTCGGAGTCACCTAGTGCAG,8250 fluorescence intensity (a.u.)
15,TGCCATTCCGTACCTCTGGTCTACTCTGTACTTTGTTCCACGGAGTCACCTAGTGCAG,12400 fluorescence intensity (a.u.)
16,TCGTCTGGTGCGCCGCCTACCTCGCCGCCGCCATCTCCTCCGGAGTCACCTAGTGCAG,12800 fluorescence intensity (a.u.)
17,GGTACTACTCTTCGCCATCGCCGCCGTGCTTCTCCTCGCCCGGAGTCACCTAGTGCAG,8310 fluorescence intensity (a.u.)
18,CACTTCAATTTGTGCACCATGCATGACACTCAGATTATTCCGGAGTCACCTAGTGCAG,9080 fluorescence intensity (a.u.)
19,CTTTTGAACGAAGTTTGACCATTCGTCTTATTCAAACACTCGGAGTCACCTAGTGCAG,9160 fluorescence intensity (a.u.)
20,TGCTTCCTCCAGGCTCTACGATCCCCACCGCTGCGCTGACCGGAGTCACCTAGTGCAG,8540 fluorescence intensity (a.u.)
21,AGTAACTCCACTGCTCTGCTCTGTGCCTGAATCTCTGACACGGAGTCACCTAGTGCAG,8320 fluorescence intensity (a.u.)
22,GGGATGGAATGCAATGCCTGCTTTTTTAATGTACTACTACCGGAGTCACCTAGTGCAG,8050 fluorescence intensity (a.u.)
23,CCACACAAAGCCCTAGCATTCAAGCCCATTCCTACATTTCCGGAGTCACCTAGTGCAG,8880 fluorescence intensity (a.u.)
24,ATCCTGGACTATGGCTTTCTCTCGTAGCACGATTTTTCTTCGGAGTCACCTAGTGCAG,10600 fluorescence intensity (a.u.)
25,GCTTGTACCACTGGTGCCATCTTTTTTACTACTTTTCAACCGGAGTCACCTAGTGCAG,9360 fluorescence intensity (a.u.)
26,CATGTTCCTCCAAACCCCTAATGGAAATGTTCTCATCTCTCGGAGTCACCTAGTGCAG,8280 fluorescence intensity (a.u.)
27,CGCGTGCGTTCGTTGGCGTCTACTTGTCTCCTGAGATTTTCGGAGTCACCTAGTGCAG,12200 fluorescence intensity (a.u.)
